Measured values published in patent US11014961B2, “Self-labeling miniproteins and conjugates comprising them” (priority 2017, dated 2021).
Part of at least one peptide drawing is inferred or uncertain, most often the ends. Residues, ends and D or L forms follow the SMILES beside them. *: point of attachment. X1 = O=C(CCCC[C@@H]1SC[C@@H]2NC(=O)N[C@@H]21)NCCCC[C@H](NC(=O)CCOCCOCCOCCOCCOCCOCCOCCOCCOCCOCCOCCOCCSc1c(F)c(F)c(Sc2c(F)c(F)c(*)c(F)c2F)c(F)c1F)C(=O)O

Experiment: Thermal melting followed by circular dichroism at 222 nm
Assay type: physicochemical
Conditions: CD at 222 nm, 4-95° C.
Experimental: All experiments were performed at room temperature (˜23.5° C.) using a Jasco J-1500 spectrometer at MIT's Biophysical Instrumentation Facility (BIF). General conditions used were 10 mM sodium phosphate buffer at pH 7.45 with 5 mM TCEP (if a cysteine was present) with 50 μM peptide. CD measurements with C11S and C11A versions of Gen4 (SEQ ID NOs: 138 and 137, respectively) used the same conditions, without TCEP but with varying amount of CA (50 μM up to 500 μM depending on the desired mole ratio). Temperature melt data was obtained using a 0.5° C./minute ramp with data collected at 222 nm. […] For CD of Gen 1 (MP01; SEQ ID NO: 13), Gen1 H19L (MP01-H19L; SEQ ID NO: 62), Gen1 3 ala (MP01-T8/D10/S14A; SEQ ID NO: 69), Gen2 (MP01-Gen2; SEQ ID NO: 71) and Gen3_1 (MP01-Gen3_1; Gen 2-A17E; SEQ ID NO: 116) in their labeled and nonlabeled states, data was obtained in 12.5 mM HEPES, 50 mM NaCl, 2.5 mM MgCl2 and 2.5 mM CaCl2 at pH 7.45 with 5 mM TCEP at 50 µM peptide with or without ˜55 μM CA that had reacted for ˜2 days at room temperature. The CA labeled versions were not purified post reaction and were analyze in their reaction mixture.
Lacking an apparent cysteine pKa modulation, the basis for Gen4's high reactivity again came into question. Both C11A (SEQ ID NO: 134) and C11S (SEQ ID NO: 135) variants were synthesized and assayed them for CA-mediated structural alteration via CD. […]

Molecule `CSCC[C@H](NC(=O)[C@H](CCCCN)NC(=O)[C@H](Cc1ccc(O)cc1)NC(=O)[C@H](CCCCN)NC(=O)[C@H](CCC(N)=O)NC(=O)[C@H](CC(N)=O)NC(=O)[C@@H](N)CCSC)C(=O)N[C@@H](C)C(=O)N[C@@H](CCCCN)C(=O)N[C@@H](C)C(=O)N[C@@H](CSc1c(F)c(F)c(Sc2c(F)c(F)c(SCCOCCOCCOCCOCCOCCOCCOCCOCCOCCOCCOCCOCCC(=O)N[C@@H](CCCCNC(=O)CCCC[C@@H]3SC[C@@H]4NC(=O)N[C@@H]43)C(=O)O)c(F)c2F)c(F)c1F)C(=O)N[C@@H](Cc1ccccc1)C(=O)N[C@@H](Cc1ccccc1)C(=O)N[C@@H](C)C(=O)N[C@@H](Cc1ccccc1)C(=O)N[C@@H](CC(C)C)C(=O)N[C@@H](CCC(=O)O)C(=O)N[C@@H](Cc1c[nH]cn1)C(=O)N[C@@H](CC(C)C)C(=O)N[C@@H](CCCCN)C(=O)N[C@@H](CCCCN)C(=O)N[C@@H](CCCNC(=N)N)C(=O)N[C@@H](CCCCN)C(=O)N[C@@H](CC(C)C)C(=O)N[C@@H](Cc1ccc(O)cc1)C(=O)N1CCC[C@H]1C(=O)N[C@@H](CCSC)C(=O)N[C@@H](CO)C(=O)NCC(N)=O` [Gen4-CA] (H-MNQKYKMAKAC(X1)FFAFLEHLKKRKLYPMSG-NH2) has an unfolding transition temperature of ~64 °C.
